No constants are given. Whether binding was seen depends on the method and setting. Binding seen in cells or lysates may run through a third protein. Some results given as binding are weak or reduced against the parent protein; the word gives no strength. Where a sequence is shown, tags or fusion partners need not be part of it.
Molecular target: T1, hFSHR C-terminally fused with donor Rluc8 (human) (UniProt P23945)
T1 sequence: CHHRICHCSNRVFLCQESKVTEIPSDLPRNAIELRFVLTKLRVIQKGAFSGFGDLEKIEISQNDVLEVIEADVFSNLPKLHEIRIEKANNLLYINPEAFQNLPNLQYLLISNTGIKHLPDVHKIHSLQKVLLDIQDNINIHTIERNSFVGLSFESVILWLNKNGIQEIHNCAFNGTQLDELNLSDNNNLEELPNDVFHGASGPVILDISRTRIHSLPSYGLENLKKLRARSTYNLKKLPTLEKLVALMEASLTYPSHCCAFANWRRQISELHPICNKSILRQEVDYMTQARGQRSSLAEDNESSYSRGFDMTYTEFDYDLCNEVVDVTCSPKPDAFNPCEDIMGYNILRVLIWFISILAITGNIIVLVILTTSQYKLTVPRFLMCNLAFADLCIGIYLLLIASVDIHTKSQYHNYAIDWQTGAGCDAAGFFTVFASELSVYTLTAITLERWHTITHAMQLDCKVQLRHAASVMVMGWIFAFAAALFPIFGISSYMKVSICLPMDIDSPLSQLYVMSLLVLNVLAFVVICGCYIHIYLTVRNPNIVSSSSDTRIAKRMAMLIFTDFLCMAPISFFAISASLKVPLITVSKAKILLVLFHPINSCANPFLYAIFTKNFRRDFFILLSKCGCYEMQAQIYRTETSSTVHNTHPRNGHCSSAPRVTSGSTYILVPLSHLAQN
Test: FRET or BRET; living HEK293 cells co-transfected with FSHR-Rluc8 and NES-Venus-mGs or YPET-β-arrestin-2; stimulated with FSH (10^-9.5 to 10^-6.5 M) with or without 1 µM PRC1-Hinge-Fc or NR control-Hinge-Fc; 5 µM coelenterazine-H; read every 60 s for about 60 min

The chains behind the UniProt entries cited, without tags or fusion partners.
UniProt P32121: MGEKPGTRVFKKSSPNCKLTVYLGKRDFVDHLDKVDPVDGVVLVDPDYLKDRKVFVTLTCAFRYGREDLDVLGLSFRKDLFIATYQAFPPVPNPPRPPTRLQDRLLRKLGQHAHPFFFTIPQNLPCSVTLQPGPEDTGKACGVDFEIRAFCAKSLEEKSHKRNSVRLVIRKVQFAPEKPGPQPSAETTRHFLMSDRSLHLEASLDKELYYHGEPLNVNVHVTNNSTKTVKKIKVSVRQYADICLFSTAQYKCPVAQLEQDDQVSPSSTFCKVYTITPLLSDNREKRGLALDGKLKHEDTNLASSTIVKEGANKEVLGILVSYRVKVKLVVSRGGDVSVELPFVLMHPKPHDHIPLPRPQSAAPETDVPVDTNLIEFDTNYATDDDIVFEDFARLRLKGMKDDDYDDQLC

binding: binds
Substance: β-arrestin-2 N-terminally fused to a YPET BRET acceptor (from UniProt P32121 1-409)
